Measurements: the supplement of paper PMC10849652
The list shows a part of the results.

Amino acid sequences for entries named in this document (tags omitted). A change or cut given only in a name is not applied to a line headed by its entry.
UniProt P34059: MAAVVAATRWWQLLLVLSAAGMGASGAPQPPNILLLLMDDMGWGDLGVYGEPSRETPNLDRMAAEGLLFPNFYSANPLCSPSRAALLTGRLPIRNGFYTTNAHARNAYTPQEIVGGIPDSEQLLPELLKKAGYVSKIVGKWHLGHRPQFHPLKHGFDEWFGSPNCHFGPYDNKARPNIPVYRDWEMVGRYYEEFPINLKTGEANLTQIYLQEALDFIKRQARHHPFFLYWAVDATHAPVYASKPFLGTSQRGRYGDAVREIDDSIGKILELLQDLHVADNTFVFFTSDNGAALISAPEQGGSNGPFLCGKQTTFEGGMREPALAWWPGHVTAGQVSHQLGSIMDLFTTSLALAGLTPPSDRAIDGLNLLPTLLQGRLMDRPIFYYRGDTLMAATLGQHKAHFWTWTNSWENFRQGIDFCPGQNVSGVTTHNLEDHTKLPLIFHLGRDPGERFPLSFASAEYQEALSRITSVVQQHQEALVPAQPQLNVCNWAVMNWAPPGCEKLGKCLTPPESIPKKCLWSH
UniProt Q96AE4: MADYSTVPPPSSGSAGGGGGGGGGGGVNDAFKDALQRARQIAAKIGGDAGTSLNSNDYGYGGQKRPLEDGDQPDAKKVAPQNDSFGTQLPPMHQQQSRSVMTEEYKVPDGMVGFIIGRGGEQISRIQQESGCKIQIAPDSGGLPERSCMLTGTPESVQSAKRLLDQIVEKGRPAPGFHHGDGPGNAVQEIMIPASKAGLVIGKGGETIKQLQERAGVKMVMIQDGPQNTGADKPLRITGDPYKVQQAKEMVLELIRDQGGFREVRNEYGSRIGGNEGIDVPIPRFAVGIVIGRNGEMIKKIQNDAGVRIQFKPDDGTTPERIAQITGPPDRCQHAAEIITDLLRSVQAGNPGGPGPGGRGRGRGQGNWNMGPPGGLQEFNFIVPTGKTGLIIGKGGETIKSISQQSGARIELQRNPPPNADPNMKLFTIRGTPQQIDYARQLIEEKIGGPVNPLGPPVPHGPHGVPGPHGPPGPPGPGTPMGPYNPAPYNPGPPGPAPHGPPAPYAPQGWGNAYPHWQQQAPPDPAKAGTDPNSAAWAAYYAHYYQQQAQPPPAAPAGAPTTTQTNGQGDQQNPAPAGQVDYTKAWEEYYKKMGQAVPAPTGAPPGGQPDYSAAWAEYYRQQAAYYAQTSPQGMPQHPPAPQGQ
UniProt O75600: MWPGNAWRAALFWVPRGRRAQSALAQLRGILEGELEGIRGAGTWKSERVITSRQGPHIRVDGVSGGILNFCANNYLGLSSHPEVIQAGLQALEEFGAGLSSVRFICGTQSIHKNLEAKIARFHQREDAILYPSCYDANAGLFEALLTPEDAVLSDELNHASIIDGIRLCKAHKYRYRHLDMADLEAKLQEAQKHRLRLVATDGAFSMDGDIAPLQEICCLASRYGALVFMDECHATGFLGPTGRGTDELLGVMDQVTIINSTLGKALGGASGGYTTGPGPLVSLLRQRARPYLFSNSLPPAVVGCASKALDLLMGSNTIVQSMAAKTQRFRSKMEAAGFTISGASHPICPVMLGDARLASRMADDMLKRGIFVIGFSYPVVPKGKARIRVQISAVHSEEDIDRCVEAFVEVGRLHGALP
UniProt Q96RP9: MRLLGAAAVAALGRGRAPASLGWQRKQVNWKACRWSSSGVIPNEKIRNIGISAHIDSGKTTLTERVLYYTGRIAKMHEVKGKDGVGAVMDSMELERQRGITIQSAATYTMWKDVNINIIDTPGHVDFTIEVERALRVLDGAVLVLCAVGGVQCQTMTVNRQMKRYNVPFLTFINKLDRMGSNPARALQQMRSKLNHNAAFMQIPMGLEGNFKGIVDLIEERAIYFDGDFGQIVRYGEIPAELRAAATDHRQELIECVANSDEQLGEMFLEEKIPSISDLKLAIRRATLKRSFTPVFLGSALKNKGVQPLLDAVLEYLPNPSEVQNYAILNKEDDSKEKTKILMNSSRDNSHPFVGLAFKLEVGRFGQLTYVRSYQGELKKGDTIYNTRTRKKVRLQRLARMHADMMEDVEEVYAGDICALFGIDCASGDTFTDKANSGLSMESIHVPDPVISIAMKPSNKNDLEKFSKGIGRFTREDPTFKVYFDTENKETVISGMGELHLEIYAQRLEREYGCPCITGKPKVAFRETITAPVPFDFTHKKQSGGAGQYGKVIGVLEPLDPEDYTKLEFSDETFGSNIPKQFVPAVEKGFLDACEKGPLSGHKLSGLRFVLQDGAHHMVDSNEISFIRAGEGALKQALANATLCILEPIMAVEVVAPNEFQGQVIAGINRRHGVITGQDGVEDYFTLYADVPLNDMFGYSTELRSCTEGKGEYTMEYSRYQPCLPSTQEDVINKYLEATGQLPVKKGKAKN
UniProt Q14697: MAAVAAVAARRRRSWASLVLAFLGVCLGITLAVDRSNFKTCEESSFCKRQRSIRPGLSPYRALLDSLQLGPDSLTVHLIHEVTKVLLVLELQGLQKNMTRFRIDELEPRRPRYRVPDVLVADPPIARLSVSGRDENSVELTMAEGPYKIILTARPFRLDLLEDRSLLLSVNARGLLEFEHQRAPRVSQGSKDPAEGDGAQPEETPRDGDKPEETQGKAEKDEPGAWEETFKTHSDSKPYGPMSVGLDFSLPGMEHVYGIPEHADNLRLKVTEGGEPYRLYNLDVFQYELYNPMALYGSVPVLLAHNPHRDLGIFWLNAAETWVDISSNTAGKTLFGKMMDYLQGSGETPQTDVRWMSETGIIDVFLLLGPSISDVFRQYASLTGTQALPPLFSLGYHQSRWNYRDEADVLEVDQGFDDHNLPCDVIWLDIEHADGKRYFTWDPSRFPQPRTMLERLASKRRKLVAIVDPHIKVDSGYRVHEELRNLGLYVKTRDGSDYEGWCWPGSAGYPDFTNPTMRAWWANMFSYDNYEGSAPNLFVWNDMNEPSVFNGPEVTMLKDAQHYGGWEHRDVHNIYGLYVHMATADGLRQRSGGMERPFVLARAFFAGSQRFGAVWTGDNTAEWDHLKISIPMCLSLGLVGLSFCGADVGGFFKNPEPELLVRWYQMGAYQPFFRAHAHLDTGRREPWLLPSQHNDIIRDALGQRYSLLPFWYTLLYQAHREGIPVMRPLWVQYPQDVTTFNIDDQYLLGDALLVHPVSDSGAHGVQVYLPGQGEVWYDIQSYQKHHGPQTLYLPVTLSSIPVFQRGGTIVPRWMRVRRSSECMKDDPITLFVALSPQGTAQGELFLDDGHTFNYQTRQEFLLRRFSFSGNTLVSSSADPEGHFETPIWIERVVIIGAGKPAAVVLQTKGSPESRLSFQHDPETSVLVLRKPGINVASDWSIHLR
UniProt P51570: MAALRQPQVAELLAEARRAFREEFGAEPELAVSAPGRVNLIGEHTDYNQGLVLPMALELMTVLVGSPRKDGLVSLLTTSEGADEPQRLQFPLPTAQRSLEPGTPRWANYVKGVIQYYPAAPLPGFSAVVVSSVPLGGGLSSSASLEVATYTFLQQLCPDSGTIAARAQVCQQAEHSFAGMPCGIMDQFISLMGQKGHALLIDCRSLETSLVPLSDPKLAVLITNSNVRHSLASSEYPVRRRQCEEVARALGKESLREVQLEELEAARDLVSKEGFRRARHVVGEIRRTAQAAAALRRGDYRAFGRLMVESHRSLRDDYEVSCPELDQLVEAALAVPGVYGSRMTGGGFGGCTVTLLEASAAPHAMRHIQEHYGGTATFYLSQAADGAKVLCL
UniProt P60520, whole entry, looked up: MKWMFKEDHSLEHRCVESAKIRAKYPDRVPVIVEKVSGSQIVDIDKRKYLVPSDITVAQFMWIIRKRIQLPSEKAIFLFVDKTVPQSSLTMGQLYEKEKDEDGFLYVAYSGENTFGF
UniProt Q13069: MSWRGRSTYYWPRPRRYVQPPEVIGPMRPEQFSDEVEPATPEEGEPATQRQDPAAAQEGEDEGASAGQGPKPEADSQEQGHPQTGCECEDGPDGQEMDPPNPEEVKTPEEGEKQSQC
UniProt P51116, whole entry, looked up: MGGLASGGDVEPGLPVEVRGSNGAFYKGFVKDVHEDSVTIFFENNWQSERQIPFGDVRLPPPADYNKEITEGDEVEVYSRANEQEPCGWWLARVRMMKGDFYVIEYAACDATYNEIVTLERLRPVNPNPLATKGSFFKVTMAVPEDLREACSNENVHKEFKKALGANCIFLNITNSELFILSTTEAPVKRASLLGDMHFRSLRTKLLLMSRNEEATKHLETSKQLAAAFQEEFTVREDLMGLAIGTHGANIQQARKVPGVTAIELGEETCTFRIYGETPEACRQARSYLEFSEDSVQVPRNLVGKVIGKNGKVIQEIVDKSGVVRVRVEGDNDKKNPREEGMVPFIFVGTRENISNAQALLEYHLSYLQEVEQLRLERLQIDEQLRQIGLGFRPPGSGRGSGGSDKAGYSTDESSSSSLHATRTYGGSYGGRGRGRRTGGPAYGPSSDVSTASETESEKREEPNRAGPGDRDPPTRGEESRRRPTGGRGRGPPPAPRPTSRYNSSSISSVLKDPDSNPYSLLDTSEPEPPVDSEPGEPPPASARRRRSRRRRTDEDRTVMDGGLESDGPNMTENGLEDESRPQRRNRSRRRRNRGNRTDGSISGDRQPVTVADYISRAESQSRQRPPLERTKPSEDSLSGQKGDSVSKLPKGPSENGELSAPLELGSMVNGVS
UniProt Q3B7J2: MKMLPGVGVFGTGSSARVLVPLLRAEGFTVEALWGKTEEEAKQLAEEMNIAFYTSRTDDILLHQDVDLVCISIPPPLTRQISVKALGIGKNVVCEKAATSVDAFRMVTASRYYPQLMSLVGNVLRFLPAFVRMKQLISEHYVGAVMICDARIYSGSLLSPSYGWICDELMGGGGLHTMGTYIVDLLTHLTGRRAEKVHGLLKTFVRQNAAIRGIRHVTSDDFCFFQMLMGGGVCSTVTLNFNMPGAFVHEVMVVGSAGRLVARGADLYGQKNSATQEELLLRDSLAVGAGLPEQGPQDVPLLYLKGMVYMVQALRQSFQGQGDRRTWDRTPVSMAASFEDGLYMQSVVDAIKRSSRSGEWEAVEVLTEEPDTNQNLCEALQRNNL
UniProt O14893: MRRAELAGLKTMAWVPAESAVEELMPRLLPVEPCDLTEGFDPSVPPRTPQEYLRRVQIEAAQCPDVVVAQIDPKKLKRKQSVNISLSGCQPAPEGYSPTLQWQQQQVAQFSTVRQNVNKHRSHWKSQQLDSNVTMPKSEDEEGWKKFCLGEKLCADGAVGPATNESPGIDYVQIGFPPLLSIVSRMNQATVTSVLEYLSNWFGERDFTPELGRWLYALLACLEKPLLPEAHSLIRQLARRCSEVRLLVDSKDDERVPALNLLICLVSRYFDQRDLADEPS
UniProt Q6ZNA5: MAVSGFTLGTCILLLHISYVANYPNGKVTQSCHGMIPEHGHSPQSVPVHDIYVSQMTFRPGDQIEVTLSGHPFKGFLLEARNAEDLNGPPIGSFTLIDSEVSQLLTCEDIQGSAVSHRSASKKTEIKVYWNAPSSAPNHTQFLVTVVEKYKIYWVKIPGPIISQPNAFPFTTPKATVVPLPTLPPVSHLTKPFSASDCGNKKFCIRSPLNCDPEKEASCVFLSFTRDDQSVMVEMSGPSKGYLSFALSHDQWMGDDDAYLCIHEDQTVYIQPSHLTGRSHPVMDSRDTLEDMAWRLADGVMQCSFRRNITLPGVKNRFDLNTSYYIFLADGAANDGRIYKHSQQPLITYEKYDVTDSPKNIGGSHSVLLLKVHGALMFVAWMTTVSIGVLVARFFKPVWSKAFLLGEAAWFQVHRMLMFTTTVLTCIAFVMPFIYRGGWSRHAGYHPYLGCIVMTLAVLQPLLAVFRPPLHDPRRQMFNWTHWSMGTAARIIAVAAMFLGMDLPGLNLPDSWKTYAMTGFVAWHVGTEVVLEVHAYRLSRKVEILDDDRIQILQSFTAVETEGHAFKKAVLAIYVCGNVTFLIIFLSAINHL
UniProt Q01167: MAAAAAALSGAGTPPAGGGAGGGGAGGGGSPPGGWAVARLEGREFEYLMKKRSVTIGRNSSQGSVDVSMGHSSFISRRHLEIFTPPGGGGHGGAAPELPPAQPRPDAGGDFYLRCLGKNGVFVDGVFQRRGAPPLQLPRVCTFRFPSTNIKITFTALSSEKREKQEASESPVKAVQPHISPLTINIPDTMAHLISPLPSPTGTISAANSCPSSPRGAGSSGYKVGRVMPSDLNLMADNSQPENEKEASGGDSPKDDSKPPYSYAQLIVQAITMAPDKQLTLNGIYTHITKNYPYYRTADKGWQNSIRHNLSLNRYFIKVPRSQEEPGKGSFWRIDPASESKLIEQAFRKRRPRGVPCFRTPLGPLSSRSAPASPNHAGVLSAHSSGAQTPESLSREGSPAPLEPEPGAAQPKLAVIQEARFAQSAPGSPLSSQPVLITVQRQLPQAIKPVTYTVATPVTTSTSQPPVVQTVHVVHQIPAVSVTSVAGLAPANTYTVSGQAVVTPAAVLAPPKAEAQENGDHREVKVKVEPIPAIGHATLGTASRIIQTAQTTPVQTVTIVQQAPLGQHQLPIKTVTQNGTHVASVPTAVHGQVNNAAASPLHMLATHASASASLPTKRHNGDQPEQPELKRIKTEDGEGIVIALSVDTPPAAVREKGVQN

Legend:
Test in all cases: log2 fold change, soluble protein after heating vs DMSO (PISA); higher = thermal stabilisation; K562 lysate, 10 uM; active = over 0.2 and 3.5 SD of the protein, either way, in both replicates (recomputed)
vemurafenib = compound: CCCS(=O)(=O)Nc1ccc(F)c(C(=O)c2c[nH]c3ncc(-c4ccc(Cl)cc4)cc23)c1F [vemurafenib]
In short: (§1)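 Soluble protein was defined as the supernatant remaining after 21,000xg for 90 min, following pooling of heated aliquots and adjustment to 0.5% NP-40 at 4°C. Before that, crude K562 extract at 1 mg/mL protein in PBS pH 7.4 with 1 mM MgCl2 was treated with 10 μM compound for 30 min and heated for 3 min across 48°C-58°C. Quantification used TMTpro 16plex LC-MS/MS with channel sums equalised, and values are log-two fold changes in thermal stability relative to solvent controls from duplicates.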

[1] = compound: CCCS(=O)(=O)Nc1ccc(F)c(C(=O)c2c[nH]c3ncc(Cl)cc23)c1F
In short: as §1

barasertib = compound: CCN(CCCOc1ccc2c(Nc3cc(CC(=O)Nc4cccc(F)c4)[nH]n3)ncnc2c1)CCOP(=O)(O)O [barasertib]
In short: as §1

[2] = compound: CC[C@@H]1C(=O)N(C)c2cnc(Nc3ccc(C(=O)NC4CCN(C)CC4)cc3OC)nc2N1C1CCCC1
In short: as §1

volasertib = compound: CC[C@@H]1C(=O)N(C)c2cnc(Nc3ccc(C(=O)N[C@H]4CC[C@H](N5CCN(CC6CC6)CC5)CC4)cc3OC)nc2N1C(C)C [volasertib]
In short: as §1

[3] = compound: CCn1c(C(=O)N(C2CC2)C2CC2)cc2c3c(ncn3C)c(Nc3cc(C)n(C)n3)nc21
In short: as §1

[4] = compound: CCn1cc(-c2ccnc3[nH]c(-c4cccc(CN(C)C)c4)cc23)c(-c2ccc(NC(=O)N(C)C)cc2)n1
In short: as §1

[5] = compound: CN1CCC(CNc2ccc3ncc(-c4cccc(OC(F)(F)F)c4)n3n2)CC1
In short: as §1

saracatinib = compound: CN1CCN(CCOc2cc(OC3CCOCC3)c3c(Nc4c(Cl)ccc5c4OCO5)ncnc3c2)CC1 [saracatinib]
In short: as §1

sotrastaurin = compound: CN1CCN(c2nc(C3=C(c4c[nH]c5ccccc45)C(=O)NC3=O)c3ccccc3n2)CC1 [sotrastaurin]
In short: as §1

Measured: log2 fold change

GALNS (UniProt P34059)
inactive: vemurafenib 0.02 | [1] 0.031 | barasertib -0.042 | [2] 0.003 | volasertib -0.006 | [3] -0.008 | [4] 0.003 | [5] 0.021 | saracatinib -0.006 | sotrastaurin 0.002

GABARAP (UniProt O95166)
inactive: vemurafenib 0.07 | [1] 0.06 | barasertib -0.02 | [2] 0.003 | volasertib 0.015 | [3] -0.028 | [4] 0.142 | [5] 0.051 | saracatinib 0.016 | sotrastaurin 0.002

GART (UniProt P22102)
inactive: vemurafenib 0.007 | [1] 0.001 | barasertib 0.028 | [2] -0.066 | volasertib -0.054 | [3] 0.038 | [4] 0.124 | [5] -0.013 | saracatinib 0.011 | sotrastaurin -0.023

FUBP1 (UniProt Q96AE4)
inactive: vemurafenib -0.079 | [1] 0.059 | barasertib -0.043 | [2] 0.054 | volasertib -0.008 | [3] -0.08 | [4] 0.085 | [5] 0.02 | saracatinib 0.053 | sotrastaurin 0.052

GCAT isoform 2 (UniProt O75600)
inactive: vemurafenib -0.005 | [1] -0.027 | barasertib 0.063 | [2] -0.019 | volasertib 0.03 | [3] -0.032 | [4] 0.039 | [5] 0.014 | saracatinib 0 | sotrastaurin 0.019

GEMIN4 (UniProt P57678)
inactive: vemurafenib 0.036 | [1] 0.025 | barasertib 0.041 | [2] -0.037 | volasertib -0.053 | [3] 0.023 | [4] -0.168 | [5] -0.091 | saracatinib 0.091 | sotrastaurin 0.041

Reprinted from the results shown (two entries):
GART (UniProt P22102)
inactive: vemurafenib 0.007 | [1] 0.001 | barasertib 0.028 | [2] -0.066 | volasertib -0.054 | [3] 0.038 | [4] 0.124 | [5] -0.013 | saracatinib 0.011 | sotrastaurin -0.023

FUBP1 (UniProt Q96AE4)
inactive: vemurafenib -0.079 | [1] 0.059 | barasertib -0.043 | [2] 0.054 | volasertib -0.008 | [3] -0.08 | [4] 0.085 | [5] 0.02 | saracatinib 0.053 | sotrastaurin 0.052

More results

GFM1 (UniProt Q96RP9)
inactive: vemurafenib 0.003 | [1] 0.031 | barasertib 0.036 | [2] -0.033 | volasertib -0.035 | [3] -0.013 | [4] -0.014 | [5] -0.025 | saracatinib -0.016 | sotrastaurin -0.017

GANAB isoform 2 (UniProt Q14697)
inactive: vemurafenib 0 | [1] 0.003 | barasertib 0.02 | [2] 0.013 | volasertib -0.017 | [3] 0.023 | [4] -0.059 | [5] 0.006 | saracatinib -0.014 | sotrastaurin 0.012

GALK1 isoform 2 (UniProt P51570)
inactive: vemurafenib 0.024 | [1] 0.01 | barasertib 0.031 | [2] 0.003 | volasertib -0.054 | [3] -0.009 | [4] 0.085 | [5] -0.055 | saracatinib -0.011 | sotrastaurin 0.031

GABARAPL2 (UniProt P60520)
inactive: vemurafenib 0.097 | [1] -0.016 | barasertib 0.016 | [2] 0.016 | volasertib 0.034 | [3] -0.009 | [4] 0 | [5] 0.01 | saracatinib -0.013 | sotrastaurin -0.016

GATAD2B (UniProt Q8WXI9)
inactive: vemurafenib -0.026 | [1] 0.023 | barasertib 0.051 | [2] 0.075 | volasertib 0.003 | [3] -0.026 | [4] 0.01 | [5] -0.043 | saracatinib -0.044 | sotrastaurin 0.009

FTL (UniProt P02792)
inactive: vemurafenib -0.063 | [1] 0.047 | barasertib -0.005 | [2] 0.03 | volasertib 0.06 | [3] -0.327 | [4] -0.041 | [5] 0.092 | saracatinib 0.058 | sotrastaurin 0.036

GBA (UniProt P04062)
inactive: vemurafenib -0.07 | [1] -0.002 | barasertib -0.047 | [2] -0.021 | volasertib 0.055 | [3] 0.004 | [4] 0.015 | [5] 0.122 | saracatinib -0.074 | sotrastaurin 0.049

GALNT12 (UniProt Q8IXK2)
inactive: vemurafenib 0.046 | [1] -0.015 | barasertib 0.079 | [2] -0.038 | volasertib 0.038 | [3] -0.04 | [4] 0.04 | [5] -0.106 | saracatinib 0.139 | sotrastaurin 0.073

GALE (UniProt Q14376)
inactive: vemurafenib -0.028 | [1] -0.015 | barasertib -0.006 | [2] -0.037 | volasertib -0.086 | [3] 0.065 | [4] -0.081 | [5] -0.002 | saracatinib -0.026 | sotrastaurin 0.114

GAGE5 (UniProt Q13069)
inactive: vemurafenib 0.018 | [1] -0.115 | barasertib 0.171 | [2] 0.009 | volasertib 0.118 | [3] -0.018 | [4] -0.095 | [5] -0.037 | saracatinib 0.008 | sotrastaurin 0.048

FRG1 (UniProt Q14331)
inactive: vemurafenib 0.01 | [1] 0.02 | barasertib -0.041 | [2] 0.015 | volasertib -0.014 | [3] 0.013 | [4] 0.034 | [5] 0.043 | saracatinib 0.032 | sotrastaurin 0.003

FSCN1 (UniProt Q16658)
inactive: vemurafenib -0.047 | [1] -0.006 | barasertib -0.043 | [2] -0.048 | volasertib 0.009 | [3] 0.005 | [4] 0.093 | [5] -0.028 | saracatinib -0.016 | sotrastaurin -0.034

FXR2 (UniProt P51116)
inactive: vemurafenib 0 | [1] 0.041 | barasertib -0.003 | [2] -0.021 | volasertib -0.028 | [3] 0.028 | [4] 0.007 | [5] -0.076 | saracatinib 0.034 | sotrastaurin -0.009

GFOD2 (UniProt Q3B7J2)
inactive: vemurafenib 0.176 | [1] 0.029 | barasertib -0.001 | [2] -0.197 | volasertib 0.055 | [3] 0.135 | [4] -0.065 | [5] 0.235 | saracatinib -0.129

GAR1 (UniProt Q9NY12)
inactive: vemurafenib 0.009 | [1] -0.003 | barasertib 0.105 | [2] 0.023 | volasertib 0.003 | [3] -0.001 | [4] 0.111 | [5] -0.09 | saracatinib 0.004 | sotrastaurin 0.013

GCC1 (UniProt Q96CN9)
inactive: vemurafenib 0.044 | [1] 0.003 | barasertib 0.057 | [2] 0.078 | volasertib -0.007 | [3] 0.002 | [4] 0.133 | [5] -0.07 | saracatinib 0.017 | sotrastaurin 0.051

GBF1 (UniProt Q92538)
inactive: vemurafenib 0.023 | [1] 0.04 | barasertib 0.087 | [2] -0.004 | volasertib -0.05 | [3] 0.006 | [4] -0.011 | [5] -0.046 | saracatinib -0.011 | sotrastaurin 0.019

GEMIN2 (UniProt O14893)
inactive: vemurafenib 0.061 | [1] -0.017 | barasertib 0.052 | [2] 0.033 | volasertib 0.009 | [3] 0.011 | [4] -0.052 | [5] 0.029 | saracatinib 0.025 | sotrastaurin -0.045

FRA10AC1 (UniProt Q70Z53)
inactive: vemurafenib -0.045 | [1] 0.009 | barasertib -0.013 | [2] 0.036 | volasertib -0.007 | [3] 0.038 | [4] 0.046 | [5] 0.02 | saracatinib 0.005 | sotrastaurin 0.038

GALNT7 (UniProt Q86SF2)
inactive: vemurafenib 0.057 | [1] 0.001 | barasertib -0.003 | [2] 0.002 | volasertib 0 | [3] -0.05 | [4] 0.181 | [5] -0.057 | saracatinib -0.006 | sotrastaurin 0.023

FRRS1 (UniProt Q6ZNA5)
inactive: vemurafenib 0.073 | [1] -0.024 | barasertib -0.011 | [2] 0.055 | volasertib -0.009 | [3] -0.034 | [4] -0.094 | [5] 0.174 | saracatinib 0.046 | sotrastaurin 0.009

FOXK2 (UniProt Q01167)
inactive: vemurafenib 0 | [1] -0.004 | barasertib 0.041 | [2] 0.066 | volasertib 0.003 | [3] -0.028 | [4] 0.079 | [5] 0.061 | saracatinib 0.02 | sotrastaurin 0.034
